Data as given in patent publication US7160880B1, “Short-acting benzodiazepines” (CeNeS Limited, priority 1999, dated 2007).
For at least one compound, name, drawing or mass did not settle the structure.

Biological target: benzodiazepine receptor (benzodiazepine site on the GABAA receptor complex)
Assay: Benzodiazepine radioligand (3H-flunitrazepam) binding assay
Details: read-out: Benzodiazepine receptor binding Ki, brain membrane homogenates, 90 minutes at 4° C., tissue species of the tabulated values not stated

| SMILES | Ki [nM] |
| --- | --- |
| O=C(CC[C@@H]1N=C(c2ccccc2F)c2cc(Cl)ccc2NC1=O)OCc1ccncc1 [Example 1-16] | 1 to 50 |
| CC(C)(C)OC(=O)CCC[C@@H]1N=C(c2ccccc2F)c2cc(Cl)ccc2NC1=O [Example 1-12] | 101 to 1000 |
